# Test results taken from PubChem BioAssay AID540275 (National Center for Advancing Translational Sciences (NCATS), 2011).
# By UniProt entry, the sequences of proteins in these tests, tags left out.
# UniProt Q8NER1, whole entry, looked up: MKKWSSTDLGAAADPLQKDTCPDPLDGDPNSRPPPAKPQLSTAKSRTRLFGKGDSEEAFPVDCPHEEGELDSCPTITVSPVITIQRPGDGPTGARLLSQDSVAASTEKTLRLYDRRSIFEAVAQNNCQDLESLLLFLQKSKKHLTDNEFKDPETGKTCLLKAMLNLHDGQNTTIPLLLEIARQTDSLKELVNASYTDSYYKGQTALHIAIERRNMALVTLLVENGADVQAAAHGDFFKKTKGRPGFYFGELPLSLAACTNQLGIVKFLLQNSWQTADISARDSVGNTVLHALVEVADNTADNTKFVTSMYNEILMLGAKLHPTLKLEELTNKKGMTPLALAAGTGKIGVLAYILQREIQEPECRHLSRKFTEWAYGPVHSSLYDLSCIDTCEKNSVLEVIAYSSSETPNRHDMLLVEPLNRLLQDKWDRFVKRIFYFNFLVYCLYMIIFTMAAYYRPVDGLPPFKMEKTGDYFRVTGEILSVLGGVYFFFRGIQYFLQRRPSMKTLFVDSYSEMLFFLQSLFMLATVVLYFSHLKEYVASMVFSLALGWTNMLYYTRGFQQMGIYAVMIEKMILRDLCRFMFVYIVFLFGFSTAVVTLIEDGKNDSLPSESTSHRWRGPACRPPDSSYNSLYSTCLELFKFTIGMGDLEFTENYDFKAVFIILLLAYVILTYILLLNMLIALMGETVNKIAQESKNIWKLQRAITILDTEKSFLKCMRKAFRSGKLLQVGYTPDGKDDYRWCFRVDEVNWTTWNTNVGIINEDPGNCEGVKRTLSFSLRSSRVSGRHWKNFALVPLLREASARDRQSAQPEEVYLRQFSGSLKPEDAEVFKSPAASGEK
# In all, about 320,000 compounds went through this assay and about 620 (0.19%) were called active. This list was built around the results that the source calls inconclusive (neither active nor inactive); the mix of calls is not that of the screen. Rule as the data show it: active = activation above about 80%; inconclusive = between about 30% and that limit; inactive = weaker than that.
# Molecular target: Transient receptor potential cation channel subfamily V member 1 (Homo sapiens) (UniProt Q8NER1)
# Assay: HTS Assay for Compounds that Act as Agonists of the Vanilloid Receptor 1; also: 0% is about no effect
# Conditions: TRPV1-expressing cells, Fluo-8 calcium influx, agonist mode; at 8.33 µM, stronger effect = higher value
# Outline: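 TRPV1-expressing cells were cultured overnight at 35.5C and loaded with Fluo-8 calcium dye for 40 to 90 min at room temperature. After a 10 s baseline, compound was added and calcium influx was read kinetically for 3 min (ex 480/em 520 nm).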
row,SMILES,activation
1,CC(=O)OCCNc1nc(-c2ccccc2)nc2ccccc12,inconclusive: 60.5%
2,CNC(=O)C1CCN(S(=O)(=O)c2c(C)noc2/C=C/c2cccc(C)c2)CC1,inconclusive: 41.5%
3,Clc1cncc(Cl)c1N/N=C/c1ccccc1,inconclusive: 44.4%
4,CCOC(=O)c1[nH]c2ccccc2c1NC(=O)C1CCCC1,inconclusive: 35.3%
5,Cc1nc(Nc2ccc(Cl)cc2)c2oc3ccccc3c2n1,inactive: 5.45%
6,COc1ccc(-c2nn(-c3ccccc3)cc2C(=O)N2CCOCC2)cc1,inconclusive: 32.7%
7,Cc1cc(OCCOCCNCc2ccccc2)ccc1C(C)C,inactive: 9.66%
8,O=C(NN=C1CCCCCCCCCCC1)c1cccc(S(=O)(=O)N2CCOCC2)c1,inconclusive: 43%
9,Cc1ccccc1NC(=O)c1c(C)nn(-c2ccccc2)c1Cl,inconclusive: 56.3%
10,Clc1ccc2oc(SCc3cccnc3)nc2c1,inconclusive: 32.7%
11,Cc1ccc(O)c(C(=O)c2cc(C#N)c(=O)n(Cc3ccccc3)c2)c1,inactive: 2.39%
12,COc1ccc(Cl)c(Cn2c(NCc3ccco3)nc3c2c(=O)n(C)c(=O)n3C)c1,inconclusive: 37.8%
13,O=C(COc1ccc(Br)cc1)N1CCc2ccccc21,inconclusive: 65.1%
14,CCCCc1ccc(NC(=O)OC)cc1,inactive: 20.9%
15,COCCNC(=S)N1CCC(C(=O)c2ccc(C)cc2)CC1,inconclusive: 62.2%
16,CCOC(=O)c1cc(C(C)(C)C)oc1CNC(=O)c1c(C)oc2c1CCCC2,inconclusive: 54.5%
17,CC[C@]12CCCN3CCc4c(n(c5ccccc45)[C@@](O)(C(=O)OC)C1)[C@@H]32,inactive: 0.705%
18,COc1ccc(N2CCC(CNC(=O)Nc3cccc(OC)c3)C2)cc1 (stereo unspecified),inconclusive: 52.6%
19,Cc1occc1C(=O)N/N=C/C=C\c1ccccc1[N+](=O)[O-],inactive: 2.93%
20,CC1CN(C(=O)Nc2ccc(F)cc2)C2(CCCCCC2)O1 (stereo unspecified),inconclusive: 30.7%
21,Cc1c(C(=O)CN2CCN(c3ccccc3)CC2)c2ccccc2n1C,inactive: 2.44%
22,O=C(c1cc(-c2ccc(Cl)c(Cl)c2)on1)N1CCCCC1,inconclusive: 67.7%
23,O=C(O/N=C1\CCS(=O)(=O)c2sccc21)c1ccc(F)cc1,inconclusive: 33.8%
24,COc1ccc(N2CC(NC(=O)c3ccc4ccccc4c3)CC2=O)cc1OC (stereo unspecified),inconclusive: 46.4%
25,O=C(Nc1ccc(Cl)cc1)Nc1ccc(N2CCOCC2)cc1,inactive: 1.8%
26,CCC1CCCCN1CCCNC(=O)CN1C(=O)COc2ccc(S(=O)(=O)N3CCOCC3)cc21 (stereo unspecified),inactive: 2.31%

# From no. 4 to 5, copied from above:
row,SMILES,activation
4,CCOC(=O)c1[nH]c2ccccc2c1NC(=O)C1CCCC1,inconclusive: 35.3%
5,Cc1nc(Nc2ccc(Cl)cc2)c2oc3ccccc3c2n1,inactive: 5.45%
